In the supplement of paper PMC10338343:
± gives the standard deviation. Only a part is listed here, and it is no random draw. The uncertainty is large for many entries.

These sequences were tested on MIWI (PIWIL1) piRISC loaded with L1MC piRNA (30 nt) (assay: pre-steady-state target cleavage rate (min^-1); MIWI and MILI are mouse PIWI proteins and EfPiwi is from a freshwater sponge; tags in brackets are library labels; higher = faster piRNA-guided slicing of the target). Conditions: guide: L1MC piRNA 5'p-UAACUAAAUACUAUGCAAGCUGUAGGUCCU; auxiliary factor: 500 nM mouse GTSF1.
In short: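 A transcribed, DNA-blocked target RNA library (0.1 nM) and 1 nM active affinity-purified piRISC bearing one synthetic guide were incubated in HEPES–potassium acetate buffer at 33 °C for 0–8 or 0–960 min, either with or without 500 nM GTSF1 partner protein. Uncleaved targets were sequenced, normalised to depth and to weakly complementary targets, and pooled over three trials, with k3 capped at 0.0001 min^-1. The pre-steady-state cleavage rate was derived with a burst-and-steady-state fit.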

Sequence | pre-steady-state target cleavage rate
UGGACCUACAGCUUGCAUGGUAUUUAGUUA | 1.38 ± 0.079
UCCUGGAUGUCGAACGUAUGUAUUUCAGUUA | 0.000162 ± 0.032
AGGACCUACAGCAUGCAUAGUAUUUAGUUA | 1.33 ± 0.06

Same assay, conditions: guide: L1MC piRNA 5'p-UAACUAAAUACUAUGCAAGCUGUAGGUCCU; auxiliary factor: none (no GTSF1)

Sequence | pre-steady-state target cleavage rate
UCGACCUACAGCUUGCAUUCAAUUUAGUUA | 0.00121 ± 0.0054
UGGACCUACAGCUUGCAUAGUUAUUACAAA | 0.000868 ± 0.0074
UGGACCUUGUGCUUGCAUAGUAUUUUCAAA | 0.0018 ± 0.0033
UCCACCUACAGGAUGCAUAGUAUUUAGAAA | 0.000876 ± 0.0046
UCCACCUACAGCUUGCAUAGUAAUUAGAAA | 0.00186 ± 0.0034
UCCUGGAUCAGCUACCAUAGUAUUUAGUUA | 0.00173 ± 0.0048
UCGACCUACUCGUUGCAUAGUAUUUUCAAA | 0.00091 ± 0.0039
AGGACCUACAGCUUCCAUAGUAUUUACAAA | 0.0006 ± 0.011
UCCACCUACAGCAACCAUAGUAUUUAGAAA | 0.000283 ± 0.0082
AGCACCUACAGCUUGCAUAGUAUUUACAAA | 0.00384 ± 0.0041
UCGACCUACAGCUUGCAUAGUAUAAAGAAA | 0.00161 ± 0.0041
UCGACCUACAGCUUGCAUACUAUUUUCAAA | 0.000842 ± 0.0052
UCCACCUACAGCUUGCAUAGUAUUUGUUA | 0.00185 ± 0.005
UCGACCUACAGCUUCCAUAGUAUUUAGAAA | 0.000468 ± 0.0088
UGGACCUACAGCUUCGAUAGUAUUUACAAA | 0.00024 ± 0.013
UCCUGGAUGUCGAACGUAACUAAUUAGUUA | 0.000112 ± 0.038
UCGACCUACAGCUUGCAUAGUAAAAAGUAA | 0.0012 ± 0.0069
UCGACCUACAGCUUGCAUAGAUAUUUAGUUA | 0.00181 ± 0.0033
UCGACCUACAGCUUGCAUAGAUUUAGUUA | 0.00127 ± 0.0054

Sequence | pre-steady-state target cleavage rate
UCGACCUACAGCUACGAUAGUAUUUAGUUA | 0.000994 ± 0.0071
UCGACCUACAGCUUCCAAAGUAUUUAGUUA | 0.00148 ± 0.0027
UCCACCUACAGCUUGCAUAGUUAAUAGUAA | 0.00117 ± 0.0051
UGGACCUACACGAUGCAUAGUAUUUUCAAA | 0.000729 ± 0.0064
UCCUGGAUGUCGAACGAAACUAUUUAGUUA | 0.000171 ± 0.028
UCGACCUACAGCAAGCAUAGUAUUUAGAAA | 0.00128 ± 0.0046
AGGACCUACAGCUUGCAAUCUAUUUAGAAA | 0.000343 ± 0.0072
UCCACCUACAGCUUGCAUAGUAUAAUGAAA | 0.00146 ± 0.0047
UCGACCUACAGCUUGGUAAGUAUUUAGAAA | 0.000592 ± 0.009
UCGACCUACAGCUUGCAUAGUAAAUACAAA | 0.000931 ± 0.0065
UCCUGGUACAGCUACCAUAGUAUUUAGUAA | 0.00121 ± 0.0081
UCCUGGAUGUCGAACCAUAGUUAAAUCAAA [g10:g15:cont:t1A] | 0.000314 ± 0.022
UCCUGGAACAGCUUGCAUAGAUAUUUAGUUA | 0.0025 ± 0.0032
AGGACCUACAGGAUGCAUAGUAUUUACAAA | 0.00152 ± 0.0033
UCCACCUACAGCUUGCAAUGUAUUUUCAAA | 0.000203 ± 0.017
UCCUGGAUGUCGAACGUUAGUGAUUUAGUUA | 0.000354 ± 0.018
UCGACCUACAGCUACGAUAGUAUUUUCAAA | 0.000498 ± 0.013
AGGACCUACAGGUUGCAUAGUAUUUUCAAA | 0.00289 ± 0.003

10 successive entries from above:
Sequence | pre-steady-state target cleavage rate
UCCACCUACAGCUUGCAUAGUAUAAUGAAA | 0.00146 ± 0.0047
UCGACCUACAGCUUGGUAAGUAUUUAGAAA | 0.000592 ± 0.009
UCGACCUACAGCUUGCAUAGUAAAUACAAA | 0.000931 ± 0.0065
UCCUGGUACAGCUACCAUAGUAUUUAGUAA | 0.00121 ± 0.0081
UCCUGGAUGUCGAACCAUAGUUAAAUCAAA [g10:g15:cont:t1A] | 0.000314 ± 0.022
UCCUGGAACAGCUUGCAUAGAUAUUUAGUUA | 0.0025 ± 0.0032
AGGACCUACAGGAUGCAUAGUAUUUACAAA | 0.00152 ± 0.0033
UCCACCUACAGCUUGCAAUGUAUUUUCAAA | 0.000203 ± 0.017
UCCUGGAUGUCGAACGUUAGUGAUUUAGUUA | 0.000354 ± 0.018
UCGACCUACAGCUACGAUAGUAUUUUCAAA | 0.000498 ± 0.013
